No constants are given. Whether binding was seen depends on the method and setting. Binding seen in cells or lysates may run through a third protein. Some results given as binding are weak or reduced against the parent protein; the word gives no strength. For some of these results: Where a sequence is shown, tags or fusion partners need not be part of it.
Tests used:
[1] = target: endogenous IRS-1 (MCF-7) (human (endogenous in MCF-7)) (UniProt P35568); experiment: co-IP; as a3, but MCF-7 cells with TRAF4 knocked down by a pool of two siRNAs; serum starved 24 h, with or without IGF-1 (100 ng/ml) 15 min; immunoprecipitation with anti-IRS-1 antibody
[2] = target: FLAG-IRS-1 (wild type), in MCF-7 cells (human) (UniProt P35568); experiment: co-IP; MCF-7 cells transfected with FLAG-IRS-1 with and without TRAF4, serum starved 24 h, with or without IGF-1 (100 ng/ml) 15 min; immunoprecipitation with anti-FLAG antibody, Western blot
[3] = target: endogenous IRS-1 (MCF-7) (human (endogenous in MCF-7)) (UniProt P35568); experiment: co-IP; endogenous proteins of MCF-7 cells, serum starved 24 h, with or without IGF-1 (100 ng/ml, 10 or 15 min; Fig. 3D with control siRNA); immunoprecipitation with anti-IRS-1 antibody and protein A-agarose or IgG control, Western blot
[4] = target: FLAG-IRS-1 K1186_1189R mutant, in 293T cells (human) (UniProt P35568); experiment: co-IP; 293T cells transfected with FLAG-IRS-1 WT or K1186_1189R mutant in the absence or presence of TRAF4, serum starved 24 h, IGF-1 (100 ng/ml) 15 min; immunoprecipitation with anti-FLAG antibody, Western blot
[5] = target: FLAG-tagged IRS-1 (wild type), in 293T cells (human) (UniProt P35568); experiment: as above
myc-tagged TRAF4 = target: T1, myc-tagged TRAF4 (UniProt Q9BUZ4); experiment: co-IP; 293T cells transiently transfected with FLAG-IRS-1 and myc-TRAF4 or empty vector; immunoprecipitation with an anti-Myc antibody, Western blot; NP40 lysis buffer, 4 °C, 3 h
T1 sequence: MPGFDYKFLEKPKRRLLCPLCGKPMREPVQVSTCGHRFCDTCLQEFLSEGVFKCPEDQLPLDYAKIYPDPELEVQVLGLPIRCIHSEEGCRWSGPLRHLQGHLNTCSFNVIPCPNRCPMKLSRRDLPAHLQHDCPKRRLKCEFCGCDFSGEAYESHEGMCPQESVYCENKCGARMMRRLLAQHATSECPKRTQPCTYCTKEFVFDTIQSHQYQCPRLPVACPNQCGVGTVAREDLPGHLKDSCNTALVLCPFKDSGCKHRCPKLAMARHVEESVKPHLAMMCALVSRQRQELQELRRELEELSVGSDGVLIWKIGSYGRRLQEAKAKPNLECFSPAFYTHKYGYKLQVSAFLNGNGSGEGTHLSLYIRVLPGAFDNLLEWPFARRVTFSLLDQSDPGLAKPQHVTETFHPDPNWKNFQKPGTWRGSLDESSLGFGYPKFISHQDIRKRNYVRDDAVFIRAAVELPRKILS

Sequences of proteins named here, by UniProt entry; tags and fusion partners are left off. A change or cut given only in a name is not applied to a line headed by its entry. A line that says so, or that is headed by a name, gives the form on record, which may keep a tag or linker.
UniProt P35568: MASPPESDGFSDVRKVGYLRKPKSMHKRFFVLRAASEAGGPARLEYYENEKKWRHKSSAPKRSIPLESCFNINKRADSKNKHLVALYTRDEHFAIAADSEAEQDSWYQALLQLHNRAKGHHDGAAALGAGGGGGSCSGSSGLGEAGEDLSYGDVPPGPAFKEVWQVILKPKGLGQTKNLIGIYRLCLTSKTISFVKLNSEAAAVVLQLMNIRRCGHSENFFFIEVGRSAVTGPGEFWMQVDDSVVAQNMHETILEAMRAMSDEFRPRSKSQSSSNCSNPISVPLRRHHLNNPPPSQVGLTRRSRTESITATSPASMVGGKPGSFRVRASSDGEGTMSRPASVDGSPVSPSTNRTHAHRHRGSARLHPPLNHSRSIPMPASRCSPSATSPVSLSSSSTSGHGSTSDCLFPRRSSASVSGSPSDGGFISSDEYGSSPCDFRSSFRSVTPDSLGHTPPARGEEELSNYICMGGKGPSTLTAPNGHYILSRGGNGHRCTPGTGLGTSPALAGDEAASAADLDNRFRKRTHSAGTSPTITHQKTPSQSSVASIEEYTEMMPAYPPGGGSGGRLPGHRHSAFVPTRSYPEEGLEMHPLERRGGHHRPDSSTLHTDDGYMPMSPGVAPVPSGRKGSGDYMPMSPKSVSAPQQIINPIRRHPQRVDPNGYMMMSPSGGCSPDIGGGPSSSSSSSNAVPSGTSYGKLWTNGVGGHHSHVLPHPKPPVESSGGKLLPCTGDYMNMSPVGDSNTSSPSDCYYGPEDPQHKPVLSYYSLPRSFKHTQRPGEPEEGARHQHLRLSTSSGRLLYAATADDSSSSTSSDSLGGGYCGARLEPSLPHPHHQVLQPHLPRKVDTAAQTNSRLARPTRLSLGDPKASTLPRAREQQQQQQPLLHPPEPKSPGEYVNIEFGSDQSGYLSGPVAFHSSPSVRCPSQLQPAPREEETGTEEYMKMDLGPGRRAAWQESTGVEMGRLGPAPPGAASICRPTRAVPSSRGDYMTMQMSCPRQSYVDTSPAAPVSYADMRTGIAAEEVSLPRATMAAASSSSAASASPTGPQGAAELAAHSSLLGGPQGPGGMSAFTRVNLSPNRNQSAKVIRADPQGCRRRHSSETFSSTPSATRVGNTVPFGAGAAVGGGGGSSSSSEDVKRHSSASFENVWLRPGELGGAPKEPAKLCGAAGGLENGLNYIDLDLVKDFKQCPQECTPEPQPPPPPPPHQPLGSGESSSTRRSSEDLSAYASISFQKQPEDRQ
FLAG-IRS-1 K1186_1189R mutant, in 293T cells (P35568, form named): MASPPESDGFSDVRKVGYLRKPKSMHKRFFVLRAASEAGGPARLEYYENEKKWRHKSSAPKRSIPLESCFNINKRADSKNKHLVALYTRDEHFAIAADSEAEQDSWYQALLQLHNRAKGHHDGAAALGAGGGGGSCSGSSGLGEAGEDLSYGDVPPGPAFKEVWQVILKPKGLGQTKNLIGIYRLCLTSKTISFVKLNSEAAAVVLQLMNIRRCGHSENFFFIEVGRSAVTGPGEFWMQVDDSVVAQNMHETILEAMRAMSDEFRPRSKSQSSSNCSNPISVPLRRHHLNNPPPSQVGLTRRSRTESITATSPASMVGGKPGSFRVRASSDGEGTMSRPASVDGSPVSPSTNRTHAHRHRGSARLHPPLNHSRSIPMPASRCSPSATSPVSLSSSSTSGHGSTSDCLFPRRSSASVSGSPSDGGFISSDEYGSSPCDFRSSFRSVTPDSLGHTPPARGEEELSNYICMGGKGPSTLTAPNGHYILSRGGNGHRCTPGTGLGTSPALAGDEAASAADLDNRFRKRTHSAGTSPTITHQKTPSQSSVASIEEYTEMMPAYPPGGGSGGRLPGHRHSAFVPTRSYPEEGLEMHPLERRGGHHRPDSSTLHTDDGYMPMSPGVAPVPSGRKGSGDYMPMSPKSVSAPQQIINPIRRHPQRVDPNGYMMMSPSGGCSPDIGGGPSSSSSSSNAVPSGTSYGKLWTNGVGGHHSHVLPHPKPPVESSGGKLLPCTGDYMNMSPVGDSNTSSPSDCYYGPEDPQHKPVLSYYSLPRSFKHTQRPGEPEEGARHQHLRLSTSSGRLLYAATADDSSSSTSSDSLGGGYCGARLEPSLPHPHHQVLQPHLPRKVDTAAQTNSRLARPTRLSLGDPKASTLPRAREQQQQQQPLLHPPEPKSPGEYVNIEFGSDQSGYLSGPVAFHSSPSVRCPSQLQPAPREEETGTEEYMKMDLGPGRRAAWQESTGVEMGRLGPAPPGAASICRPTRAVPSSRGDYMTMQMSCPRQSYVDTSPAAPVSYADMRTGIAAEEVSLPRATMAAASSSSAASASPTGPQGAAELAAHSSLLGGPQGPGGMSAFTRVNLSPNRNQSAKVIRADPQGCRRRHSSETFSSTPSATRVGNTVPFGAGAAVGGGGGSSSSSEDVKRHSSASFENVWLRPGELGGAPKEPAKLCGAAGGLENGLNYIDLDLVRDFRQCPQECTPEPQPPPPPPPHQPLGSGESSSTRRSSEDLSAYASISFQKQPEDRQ
UniProt P08069: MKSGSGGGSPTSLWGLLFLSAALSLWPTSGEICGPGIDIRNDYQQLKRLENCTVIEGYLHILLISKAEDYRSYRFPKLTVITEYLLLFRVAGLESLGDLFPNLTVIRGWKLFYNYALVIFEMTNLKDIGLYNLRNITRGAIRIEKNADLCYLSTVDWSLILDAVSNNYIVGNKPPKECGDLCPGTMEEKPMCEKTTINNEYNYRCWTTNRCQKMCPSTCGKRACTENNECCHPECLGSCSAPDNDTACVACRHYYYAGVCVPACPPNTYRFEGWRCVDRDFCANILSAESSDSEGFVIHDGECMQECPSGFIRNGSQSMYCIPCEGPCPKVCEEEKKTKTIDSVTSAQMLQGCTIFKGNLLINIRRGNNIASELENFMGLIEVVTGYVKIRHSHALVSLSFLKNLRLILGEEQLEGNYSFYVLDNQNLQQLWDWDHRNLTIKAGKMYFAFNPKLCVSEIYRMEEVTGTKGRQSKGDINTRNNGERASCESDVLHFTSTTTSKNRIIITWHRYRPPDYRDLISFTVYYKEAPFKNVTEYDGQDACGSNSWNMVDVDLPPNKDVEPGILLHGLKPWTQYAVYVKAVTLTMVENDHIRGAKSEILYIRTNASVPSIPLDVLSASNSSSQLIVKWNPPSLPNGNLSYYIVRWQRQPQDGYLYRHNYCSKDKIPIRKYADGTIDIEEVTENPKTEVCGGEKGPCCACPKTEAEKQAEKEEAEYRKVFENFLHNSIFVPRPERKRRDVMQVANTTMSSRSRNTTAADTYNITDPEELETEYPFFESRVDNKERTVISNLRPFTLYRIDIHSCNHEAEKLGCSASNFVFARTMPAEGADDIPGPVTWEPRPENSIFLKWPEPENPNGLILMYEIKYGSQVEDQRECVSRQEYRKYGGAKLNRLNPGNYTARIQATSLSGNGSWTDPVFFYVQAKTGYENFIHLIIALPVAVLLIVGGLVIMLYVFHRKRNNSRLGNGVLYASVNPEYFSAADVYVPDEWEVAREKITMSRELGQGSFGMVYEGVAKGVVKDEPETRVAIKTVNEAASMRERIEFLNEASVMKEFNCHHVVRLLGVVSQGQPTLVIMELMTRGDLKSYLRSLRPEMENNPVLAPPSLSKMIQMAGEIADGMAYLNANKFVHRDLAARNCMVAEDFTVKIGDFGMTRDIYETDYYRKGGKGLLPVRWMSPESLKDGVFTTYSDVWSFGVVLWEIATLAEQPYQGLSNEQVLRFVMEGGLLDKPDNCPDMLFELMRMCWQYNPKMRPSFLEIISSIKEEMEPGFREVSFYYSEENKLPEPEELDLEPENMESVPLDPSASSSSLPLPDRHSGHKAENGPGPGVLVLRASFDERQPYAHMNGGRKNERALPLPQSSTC

[6] = target: T2, endogenous TRAF4 (MCF-7) (human (endogenous in MCF-7)) (UniProt Q9BUZ4); experiment: co-IP; endogenous proteins of MCF-7 cells; immunoprecipitation with a TRAF4-specific antibody or IgG control, Western blot
T2 sequence: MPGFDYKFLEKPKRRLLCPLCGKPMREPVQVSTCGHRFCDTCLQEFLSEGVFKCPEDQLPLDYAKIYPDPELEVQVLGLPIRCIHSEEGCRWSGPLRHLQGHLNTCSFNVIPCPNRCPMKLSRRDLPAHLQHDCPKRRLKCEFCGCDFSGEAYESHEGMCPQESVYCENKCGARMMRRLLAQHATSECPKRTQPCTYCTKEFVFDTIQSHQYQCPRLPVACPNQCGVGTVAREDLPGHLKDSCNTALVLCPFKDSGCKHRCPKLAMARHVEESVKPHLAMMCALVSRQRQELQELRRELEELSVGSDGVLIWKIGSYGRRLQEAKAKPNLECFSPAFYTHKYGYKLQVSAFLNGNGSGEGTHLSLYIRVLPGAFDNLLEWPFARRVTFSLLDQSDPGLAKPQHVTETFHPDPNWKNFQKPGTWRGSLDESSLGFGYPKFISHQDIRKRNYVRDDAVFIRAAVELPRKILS

[7] = target: endogenous IRS-1 (MCF-7) (human (endogenous in MCF-7)) (UniProt P35568); experiment: co-IP; endogenous proteins of MCF-7 cells, serum starved 24 h, with or without IGF-1 (100 ng/ml, 10 or 15 min; Fig. 3D with control siRNA); immunoprecipitation with anti-IRS-1 antibody and protein A-agarose or IgG control, Western blot; remark: listed apart in the source
[8] = target: FLAG-IRS-1 K1186_1189R mutant, in 293T cells (human) (UniProt P35568); experiment: co-IP; 293T cells transiently transfected with Myc-TRAF4 and FLAG-IRS-1 WT or K1186_1189R mutant; immunoprecipitation with anti-FLAG antibody, Western blot
[9] = target: FLAG-tagged IRS-1 (wild type), in 293T cells (human) (UniProt P35568); experiment: as above

Molecule: endogenous IGF-1 receptor (MCF-7), detected by its beta subunit (from UniProt P08069 741-1367; P08069 31-736)
- binding [1]: no binding (condition: with TRAF4 knocked down by siRNA)
- binding [2]: binds
- binding [3]: binds

Molecule: endogenous IGF-1 receptor (293T), detected by its beta subunit (from UniProt P08069 741-1367; P08069 31-736)
- binding [4]: binds
- binding [5]: binds

Molecule: FLAG-tagged IRS-1 (wild type), in 293T cells (from UniProt P35568 1-1242)
- binding (myc-tagged TRAF4): binds

Molecule: endogenous IRS-1 (MCF-7) (from UniProt P35568 1-1242)
- binding [6]: binds

B1: endogenous TRAF4 (MCF-7) (protein, UniProt Q9BUZ4 1-470)
chain: MPGFDYKFLEKPKRRLLCPLCGKPMREPVQVSTCGHRFCDTCLQEFLSEGVFKCPEDQLPLDYAKIYPDPELEVQVLGLPIRCIHSEEGCRWSGPLRHLQGHLNTCSFNVIPCPNRCPMKLSRRDLPAHLQHDCPKRRLKCEFCGCDFSGEAYESHEGMCPQESVYCENKCGARMMRRLLAQHATSECPKRTQPCTYCTKEFVFDTIQSHQYQCPRLPVACPNQCGVGTVAREDLPGHLKDSCNTALVLCPFKDSGCKHRCPKLAMARHVEESVKPHLAMMCALVSRQRQELQELRRELEELSVGSDGVLIWKIGSYGRRLQEAKAKPNLECFSPAFYTHKYGYKLQVSAFLNGNGSGEGTHLSLYIRVLPGAFDNLLEWPFARRVTFSLLDQSDPGLAKPQHVTETFHPDPNWKNFQKPGTWRGSLDESSLGFGYPKFISHQDIRKRNYVRDDAVFIRAAVELPRKILS
- binding [7]: binds

B2: myc-tagged TRAF4 (protein, UniProt Q9BUZ4 1-470)
chain: MPGFDYKFLEKPKRRLLCPLCGKPMREPVQVSTCGHRFCDTCLQEFLSEGVFKCPEDQLPLDYAKIYPDPELEVQVLGLPIRCIHSEEGCRWSGPLRHLQGHLNTCSFNVIPCPNRCPMKLSRRDLPAHLQHDCPKRRLKCEFCGCDFSGEAYESHEGMCPQESVYCENKCGARMMRRLLAQHATSECPKRTQPCTYCTKEFVFDTIQSHQYQCPRLPVACPNQCGVGTVAREDLPGHLKDSCNTALVLCPFKDSGCKHRCPKLAMARHVEESVKPHLAMMCALVSRQRQELQELRRELEELSVGSDGVLIWKIGSYGRRLQEAKAKPNLECFSPAFYTHKYGYKLQVSAFLNGNGSGEGTHLSLYIRVLPGAFDNLLEWPFARRVTFSLLDQSDPGLAKPQHVTETFHPDPNWKNFQKPGTWRGSLDESSLGFGYPKFISHQDIRKRNYVRDDAVFIRAAVELPRKILS
- binding [8]: binds
- binding [9]: binds

— publication PMC8191236
